Experimental data: article PMC12500907

Biological target: Myc-NY-ESO-1 (New York esophageal squamous cell carcinoma 1) (human) (UniProt P78358)
Test: affinity purification with mass spectrometry; HEK293T transfected with Myc-NY-ESO-1, harvested 48 h later; lysates immunoprecipitated with anti-Myc antibodies; LC-MS/MS

For “PP1α, endogenous in HEK293T cells (from UniProt P62136 1-330) (enzyme)”, the binding was “binds”.

These are yes or no findings as the source states them, for the method shown. Binding seen in cells or lysates may run through a third protein. Here binding means that the protein was enriched with, or labelled near, the bait; the list need not be complete.
